PubChem BioAssay AID686937 – Drosophila RNAi Screening Center | 2013
In all, the deposit lists about 23,000 reagents; shown is a random part of those with a known target gene and a result. 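Reduced-secretion tags in replicate 1 do not always agree with the z-scores; no criterion for assigning the tags was given.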 Not given: the amount of reagent.

Screen: 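Genes whose loss weakens secretory pathway function in fly cells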 (primary screen)
Cells: Drosophila S2 cells expressing secreted horseradish peroxidase
Reagents: long dsRNA against Drosophila genes
Timing: about 5.5 days (5 days dsRNA, then 12 h reporter induction)
Challenge: reporter expression induced after 5 days of dsRNA, read 12 h later; inducer not stated
Read-out: 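After 5 days of dsRNA and 12 h of reporter induction, medium peroxidase read by chemiluminescence and scored as per-plate z-score; higher values mean more reporter released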
Reading the numbers: z-score: higher = more reporter secreted into medium

z-score, replicate 1	z-score, replicate 2	z-score, replicate 3	z-score, replicate 4	phenotype, replicate 1	gene knocked down	DRSC id
-0.14	0.3				ppk9 (pickpocket 9)	DRSC04134
-0.02	0.43				ppk9 (pickpocket 9)	DRSC04135
0.07	0.48				CG34155	DRSC13991
0.43	0.5				CG3097	DRSC18275
0.48	-0.04				Myo28B1 (Myosin 28B1)	DRSC03375
-0.34	0.32				CG31050	DRSC13883
-0.04	-0.24				lncRNA:sphinx (long non-coding RNA:sphinx)	DRSC17199
0.67	0.9				CG14893	DRSC15015
-0.37	-0.23				Cdc16 (Cell division cycle 16)	DRSC16920
0.76	0.51				CG42366	DRSC02760
0.3	0.31				CG15233	DRSC04967
-0.23	-0.57				COX8 (Cytochrome c oxidase subunit 8)	DRSC11814
0.04	0.14				CG31446	DRSC13111
0.5	-0.3				MED21 (Mediator complex subunit 21)	DRSC20932
-0.05	0.06				dnt (doughnut on 2)	DRSC03522
0.17	0.43				milt (milton)	DRSC00965
-0.12	0.16				milt (milton)	DRSC00966
0	0.2				milt (milton)	DRSC02281
0.55	0.09	-0.13	-0.26		GATAe	DRSC14223
0.5	0.33				CG3517	DRSC15492
0.58					stmA (stambha A)	DRSC05120
0.43	0.55				stmA (stambha A)	DRSC07593
0.67	0.56				stmA (stambha A)	DRSC22179
-0.14	0.29				sw (short wing)	DRSC20388
0.38	0.26				Eig71Eg (Ecdysone-induced gene 71Eg)	DRSC11154
0.32	0.3				corn (cornetto)	DRSC11021
0.19	0.25				corn (cornetto)	DRSC21943
0.02	-0.38				ppk23 (pickpocket 23)	DRSC20110
0.35	0.33				tn (retired record)	DRSC05768
0.35	0.41				tn (retired record)	DRSC06532
0.25	0.32				CG43163	DRSC10748
0.46	0.48				CG7220	DRSC05235
0.4	-0.1				CG7220	DRSC07018
-0.01	-0.2				CG11286	DRSC14293
0.35	0.35				obe (obelus)	DRSC15736
0.27	0.29				Vmat (Vesicular monoamine transporter)	DRSC06961
0.21	0.39				Vmat (Vesicular monoamine transporter)	DRSC06962
-0.37	-0.32				Vmat (Vesicular monoamine transporter)	DRSC22223
-0.6	-0.46				abs (abstrakt)	DRSC12372
-0.23	0.2				Utx (Utx histone demethylase)	DRSC02872
0.62	0.36				CG14143	DRSC10146
0.1	0.18				CG17698	DRSC11907
0.6	0.36				Rsph3 (Radial spoke head protein 3)	DRSC09696
0.32	0.16				Rsph3 (Radial spoke head protein 3)	DRSC10211
0.57	0.48				CG10041	DRSC14179
0.17	0.35				Zcchc7 (Zinc finger CCHC-type containing 7)	DRSC11099
-0.09	0.13				dpy (dumpy)	DRSC00233
0.16	0.05				dpy (dumpy)	DRSC00234
0.14	0.3				dpy (dumpy)	DRSC00472
0.49	0.15				CG32450	DRSC11546
0.46	0.28	-0.24	-0.25		Cyp4ac1 (Cytochrome P450 4ac1)	DRSC03302
0.85	0.5				Sfmbt (Scm-related gene containing four mbt domains)	DRSC02552
-1.5	0.61				CG17145	DRSC10247
0.35	0.14				CG14613	DRSC20625
-0.05	0.31				Tep3 (Thioester-containing protein 3)	DRSC03452
0.12	0.34				CG1578	DRSC19729
0.23	0.28				Cyp6a18 (Cytochrome P450 6a18)	DRSC16632
0.38	0.66				CG6048	DRSC18398
0.12	0.22				lncRNA:CR40629 (long non-coding RNA:CR40629)	DRSC20959
0.49	0				CG18754	DRSC15387
0.19	0.37				CG4462	DRSC15583
0.26	0.2				l(3)07882 (lethal (3) 07882)	DRSC15882
-0.77	0.23				CG33285	DRSC11463
-0.07	-0.8				hry (hairy)	DRSC11353
0.15	0.08				Syb (Synaptobrevin)	DRSC07559
0.37	0.3				CG43136	DRSC17417
0.53	0.38				CatB (Catalase B)	DRSC03194
-0.66	-0.55				rols (rolling pebbles)	DRSC09873
0.27	0.11				rols (rolling pebbles)	DRSC10254
0.32	0.38				rols (rolling pebbles)	DRSC10536
-0.29	0.04				CG16743	DRSC02514
-0.1	-0.41				CG5445	DRSC19943
-1.86	-0.83			reduced secretion	jus (julius seizure)	DRSC14861
0.41	0.6				jus (julius seizure)	DRSC14862
-0.05	-0.1				haf (hattifattener)	DRSC00381
0.28	0.33				GV1	DRSC08228
0.48	0.56				CG8128	DRSC20084
-0.02	0.25				Tsp74F (Tetraspanin 74F)	DRSC10508
0.21	0.73				Rbf2 (Retinoblastoma-family protein 2)	DRSC16816
0.03	0.34				CNMaR (CNMamide Receptor)	DRSC08992
0.26	0.26				CNMaR (CNMamide Receptor)	DRSC10224
0.27	0.33				CG14313	DRSC14792

A few values from above.
CG31446 [DRSC13111], z-score, replicate 1 = 0.04
Under “z-score, replicate 2”, CG6048 [DRSC18398] has 0.66
Under “z-score, replicate 2”, Utx (Utx histone demethylase) [DRSC02872] is entered as 0.2
CG17698 [DRSC11907], z-score, replicate 1 → 0.1
Under “z-score, replicate 2”, CG32450 [DRSC11546] shows 0.15
Under “z-score, replicate 1”, CG3517 [DRSC15492] is entered as 0.5
